Laboratory results reported in PubChem BioAssay AID662 (National Center for Advancing Translational Sciences (NCATS), 2007).
The other results are listed elsewhere or left out. These are further read-outs of the screen, such as a control signal, another cell line or another target. No call is given for them. Compounds called inactive in the main read-out are mostly missing here. Words in brackets tell the shape of the fitted curve; partial curves, single points and poor fits give uncertain potencies.

Assay: Cell signaling CRE-BLA (Fsk stim)
Details: CHO CRE-bla reporter (cAMP response element driving beta-lactamase), forskolin EC10, beta-lactamase ratio; measured here: 460 nm blue channel
In short: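 Modulation of forskolin signalling: compounds in titration series added with EC10 NKH 477 to CHO cells carrying a CRE-driven beta-lactamase reporter, 3 h, 37C. CCF4 FRET ratio (460/530 nm, ex 405 nm) gives %activity and AC50.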

Row | Compound | AC50
1 | COC(=O)C1=CN(C)C=C(C(=O)OC)C1c1ccccc1Cl | 6.31 µM [rising, partial curve]
2 | CCOC(=O)C1=C(N)n2c(s/c(=C\c3cccs3)c2=O)=C(C(=O)OCC)C1c1cccs1 (configuration not stated) | 12.6 µM [rising, single point]
3 | CCCOc1ccc(C2/C(=C(\O)c3c(C)[nH]c(C(=O)OC)c3C)C(=O)C(=O)N2CCN(C)C)cc1 (configuration not stated) | 25.1 µM [rising, single point]
4 | CN1CCN(c2cc(-c3ccc(N(C)C)cc3)ncn2)CC1 | 10 µM [rising, partial curve]
5 | O=C(Nc1ccc(Cl)cc1)N(Cc1cccnc1)Cc1ccco1 | 20 µM [rising, single point]
6 | C(=N\c1nc2ccccc2n1CCN1CCCCC1)/c1ccc2c(c1)OCO2 | 12.6 µM [falling, partial curve]
7 | COc1ccc(-n2c(=O)cnc3cnc(N4CCNCC4)nc32)cc1 | 10 µM [rising, partial curve]
8 | CCOc1ccc(-n2cc(C(=O)Nc3cccc(C)n3)c3cc(OC)c(OC)cc3c2=O)cc1 | 1.58 µM [rising, partial curve]
9 | CCOC(=O)c1ccccc1NC(=O)Cn1c(-c2nonc2N)nc2ccccc21 | 2 µM [rising, full curve]
10 | Cc1cc(NC(=O)Nc2cccs2)no1 | 25.1 µM [falling, single point]
11 | COC(=O)c1[nH]c2cc(C)ccc2c1NC(=O)CN1CCCc2ccccc21 | 2.51 µM [falling, partial curve, poor fit]
12 | COc1ccc(S(=O)(=O)N(Cc2ccc(OC)c(OC)c2)Cc2ccco2)cc1 | 3.98 µM [rising, partial curve, poor fit]
13 | CCOC(=O)C1CCCN(c2nc3ccccc3nc2C(C#N)C(=O)OCC)C1 (configuration not stated) | 10 µM [rising, partial curve]
14 | COc1cccc(C(c2sc3nc(C)nn3c2O)N2CCN(c3ccccc3F)CC2)c1 (configuration not stated) | 12.6 µM [rising, partial curve]
15 | CCOc1ncccc1C(=O)OCc1cn2cc(Cl)ccc2n1 | 10 µM [rising, partial curve]
16 | Cc1cccn2c(=O)c3cc(C(=O)N4COCC4(C)C)n(C)c3nc12 | 1 µM [rising, full curve]
17 | COC(=O)c1cc(OC)c(OC)cc1NC(=O)CC1CCCCC1 | 10 µM [rising, single point]
18 | Cc1cc(-n2c(C)cc(C(=O)CSc3nnc4sc5ccccc5n34)c2C)no1 | 3.98 µM [falling, single point]
19 | COc1cccc(CNC(=O)CCS(=O)(=O)c2cccc3nonc23)c1 | 25.1 µM [falling, single point]
20 | CCCCOC(=O)n1c(=O)oc2cc(S(=O)(=O)N3CCCCC3)ccc21 | 31.6 µM [falling, single point]
21 | O=C(O)c1cnn2c1NC(c1ccc(F)cc1)CC2C(F)(F)F (configuration not stated) | 0.00398 µM [falling, full curve, poor fit]
22 | Cc1cc2ccccc2n1CCNC(=O)COc1ccccc1 | 12.6 µM [rising, partial curve]
23 | C[C@@H](C(=O)Nc1ccc2ccccc2c1)[C@H]1C[C@]1(C)[C@H](NC(=O)c1ccccc1)c1ccccc1 | 0.501 µM [falling, full curve]

Single values from the results shown.
Value for C(=N\c1nc2ccccc2n1CCN1CCCCC1)/c1ccc2c(c1)OCO2 under AC50: 12.6 µM [falling, partial curve]
Value for COC(=O)c1[nH]c2cc(C)ccc2c1NC(=O)CN1CCCc2ccccc21 under AC50: 2.51 µM [falling, partial curve, poor fit]
Value for CCOc1ncccc1C(=O)OCc1cn2cc(Cl)ccc2n1 under AC50: 10 µM [rising, partial curve]

The list continues:

Row | Compound | AC50
24 | COc1ccc(N2CCN(C(=O)c3cn(C4CCCC4)c(=O)c4c3c3ccccc3n4C)CC2)cc1 | 3.16 µM [rising, partial curve]
25 | CCCOC(=O)CSc1nc(N)c(C#N)c(CC)c1C#N | 15.8 µM [rising, partial curve]
26 | NC[C@@H]1O[C@H](C23CC4CC(CC(C4)C2)C3)Cc2c1ccc(O)c2O | 25.1 µM [falling, partial curve, poor fit]
27 | COC(=O)n1c(SC)nc2ccccc21 | 10 µM [rising, partial curve]
28 | C#CCSc1nsc(SCC#C)c1C#N | 0.00316 µM [falling, full curve, poor fit]
29 | O=C(CSc1nnc(C2COc3ccccc3O2)o1)N1CCCc2ccccc21 (configuration not stated) | 0.0501 µM [falling, full curve]
30 | CC(C)(C)c1ccc(O)c(O)c1 | 1.58 µM [falling, full curve, poor fit]
31 | CC(C)c1nc2sc3c(NCc4ccco4)ncnc3c2c2c1COC(C)(C)C2 | 1.58 µM [falling, full curve, poor fit]
32 | Cn1nc(-c2ccc(OCC(=O)Nc3cccnc3)cc2)c2ccccc2c1=O | 12.6 µM [rising, single point]
33 | CCc1ccc(-c2nc(CN3CCC(C(=O)NCc4ccc(F)cc4)CC3)c(C)o2)cc1 | 3.98 µM [falling, full curve, poor fit]
34 | CC1CCN(C(=O)Cn2c(SCC(=O)Nc3nccs3)nc3ccccc32)CC1 | 10 µM [rising, single point]
35 | Nc1nc(-c2ccccc2)cc(-c2ccccc2O)n1 | 0.0501 µM [falling, full curve, poor fit]
36 | Cc1ccc2nc3c(c(C(=O)O)c2c1)CCC3 | 5.01 µM [falling, single point]
37 | COC(=O)C1=C(C)N(C2CCCC2)C(=O)C1(NC(C)=O)C(F)(F)F (configuration not stated) | 12.6 µM [falling, partial curve]
38 | O=c1c(-c2cc(F)cc(F)c2)nc2cnc(N3CCNCC3)nc2n1-c1ccccc1 | 2 µM [rising, full curve]
39 | CCc1ccc(CCC(=O)Nc2nnc(C)s2)o1 | 10 µM [falling, partial curve]
40 | Cc1ccc2c(c1)N(CCC(=O)NCc1ccco1)C(=O)CO2 | 0.00398 µM [falling, full curve, poor fit]
41 | Clc1ccc2oc(-c3ccccn3)nc2c1 | 12.6 µM [rising, single point]
42 | COC(=O)c1ccc(C(=O)OC)c(NC(=O)COC(=O)C23CC4CC(CC(O)(C4)C2)C3)c1 | 10 µM [rising, single point]
43 | COCCNC(=O)NC1(C(F)(F)F)Oc2ccc(Cl)cc2O1 (configuration not stated) | 25.1 µM [falling, single point]
44 | Cc1nnc(SCc2ccc(C(=O)c3ccc(Cl)cc3)o2)n1-c1ccccc1 | 20 µM [rising, partial curve]
45 | C[C@@](Cc1ccc(O)c(O)c1)(NN)C(=O)O | 25.1 µM [falling, partial curve, poor fit]
46 | Cc1nnc(Oc2ccccc2)c2ccccc12 | 3.16 µM [falling, single point]

3 entries out of the list, ordered by molecular weight, low to high:
Row | Compound | AC50
27 | COC(=O)n1c(SC)nc2ccccc21 | 10 µM [rising, partial curve]
46 | Cc1nnc(Oc2ccccc2)c2ccccc12 | 3.16 µM [falling, single point]
44 | Cc1nnc(SCc2ccc(C(=O)c3ccc(Cl)cc3)o2)n1-c1ccccc1 | 20 µM [rising, partial curve]

Next structures.

Row | Compound | AC50
47 | CCC(C)(C(=O)Nc1ccc2c(c1)OCCO2)N(C(C)=O)c1ccc(C(N)=O)cc1 (configuration not stated) | 31.6 µM [falling, single point]
48 | CCCCOC(=O)c1cccc(NC(=O)CC)c1 | 6.31 µM [rising, partial curve]
49 | Cc1sc2nc(C3CC3)nc(NCCNS(C)(=O)=O)c2c1C | 12.6 µM [rising, partial curve]
50 | Cc1cccc2cc(CN(CCCO)C(=O)Nc3ccccc3Cl)c(=O)[nH]c12 | 1.58 µM [falling, full curve]
51 | CCCn1c(C)nc2c(NCCO)nc(C)nc21 | 10 µM [rising, partial curve]
52 | O=S(=O)(c1ccc(F)cc1)N1CCC(N2CCN(c3ccccc3)CC2)CC1 | 1 µM [falling, full curve, poor fit]
53 | COc1ccc(N2C(=O)C3CCCN3C2c2cc(OC)c(OC)cc2OC)cc1 (configuration not stated) | 10 µM [rising, single point]
54 | Cc1ccc(NC(=O)CSc2nnc(Cc3cccn3C)n2-c2ccc(F)cc2)cc1 | 10 µM [falling, partial curve]
55 | O=C(C1CC1)N1CCc2cc(S(=O)(=O)N(CCO)Cc3ccccc3)ccc21 | 12.6 µM [rising, single point]
56 | CCCCN1CN(S(=O)(=O)c2cccs2)c2nc3ccccc3nc21 | 10 µM [rising, partial curve]
57 | CCOC(=O)N1CCN(CC(=O)Nc2c(C(=O)OC)[nH]c3cccc(Cl)c23)CC1 | 3.98 µM [falling, partial curve]
58 | CN(C)S(=O)(=O)NC(c1ccccc1)c1ccccc1 | 2 µM [falling, partial curve]
59 | COc1cc2ncnc(Nc3cccc(Br)c3)c2cc1OC | 1.26 µM [rising, full curve]
60 | CCOC(=O)c1nn(-c2ccccc2)c(C#N)c1NC(=O)c1nn(CC)cc1Br | 1.58 µM [rising, partial curve]
61 | Cc1ccc(N(Cc2ccccc2)Cc2ccccc2)cc1 | 5.01 µM [rising, single point]
62 | CC(=O)c1sc(Nc2nc3ccc(F)cc3s2)nc1C | 10 µM [rising, partial curve]
63 | CCOCCn1c(N(C)Cc2ccccc2)nc2c1c(=O)[nH]c(=O)n2C | 12.6 µM [rising, single point]
64 | O=C(CSc1nnc(Cc2cccs2)n1Cc1ccco1)Nc1cc(Cl)cc(Cl)c1 | 7.94 µM [falling, partial curve, poor fit]
65 | Cc1cc(NC(=O)CSc2ccc3nnc(-c4cccs4)n3n2)no1 | 10 µM [rising, partial curve]
66 | O=S(=O)(Nc1ccc(Cl)c(C(F)(F)F)c1)c1cnc[nH]1 | 12.6 µM [falling, partial curve]
67 | COc1cccc(Cn2c(=O)c(-c3ccc(Cl)cc3)nc3cncnc32)c1 | 10 µM [rising, partial curve]
